The list is a part of this screen's results and no random one: it is rich in T/C values a quarter to a half above the control, in often repeated tests (any T/C) and in doses without a T/C. Further doses and runs are listed elsewhere. T/C: endpoint of the treated group in % of that of the vehicle group. Some entries give survivors of the animals treated and no T/C: the source files T/C as zero there, which appears to mark a toxic dose or a test without result, not a measured value. Some doses without a T/C left all or most animals alive at the check, yet need not have been tolerated: survival well below the control is almost never listed, so the zero probably covers shortened survival too. Counts of survivors are from the toxicity check (mostly the fifth day) where no day follows; animals may have died later. Schedules are NCI's codes, read here as Q, the interval in days (D) or hours (H), X, the number of doses. Brackets with × give the number of equal values in this list. Some entries hold several experiments; the results are listed from low to high. For survival time, this PubChem deposit counts one and a half times the control or more as active, and values a quarter to a half above the control carry no call in these data; other NCI protocols may use other cut-offs.

This is an account of results in PubChem BioAssay AID248 (DTP/NCI, 2004).

For the assay, the system named is L1210 leukemia ip in BDF1 mice, survival T/C. Put plainly: NCI In Vivo Anticancer Drug Screen. Data for tumor model L1210 Leukemia (intraperitoneal) in B6D2F1 (BDF1) mice. Conditions: T/C endpoint: mean survival time, higher T/C = longer survival.
The mark [1] stands for this setting: dose: 75.0 mg/kg/injection, schedule: Q01DX001 (ip), vehicle: saline.
Where [2] appears, read: dose: 150.0 mg/kg/injection, schedule: Q01DX001 (ip), vehicle: saline.
Where [3] appears, read: dose: 300.0 mg/kg/injection, schedule: Q01DX001 (ip), vehicle: saline.
Setting [4] is: dose: 25.0 mg/kg/injection, schedule: Q01DX009 (ip), vehicle: saline.
[5] abbreviates: dose: 200.0 mg/kg/injection, schedule: Q01DX001 (ip), vehicle: saline.
Setting [6] is: dose: 400.0 mg/kg/injection, schedule: Q04DX002 (ip), vehicle: saline.
[7] abbreviates: dose: 200.0 mg/kg/injection, schedule: Q04DX003 (ip), vehicle: Klucel (hydroxypropylcellulose) (HPC).
[8] abbreviates: dose: 400.0 mg/kg/injection, schedule: Q04DX003 (ip), vehicle: Klucel (hydroxypropylcellulose) (HPC).
[9] abbreviates: dose: 100.0 mg/kg/injection, schedule: Q01DX009 (ip), vehicle: Klucel (hydroxypropylcellulose) (HPC).
The mark [10] stands for this setting: dose: 400.0 mg/kg/injection, schedule: Q01DX001 (ip), vehicle: saline.
The mark [11] stands for this setting: dose: 100.0 mg/kg/injection, schedule: Q01DX009 (ip), vehicle: saline.
The mark [12] stands for this setting: dose: 200.0 mg/kg/injection, schedule: Q01DX009 (ip), vehicle: saline.
Setting [13] is: dose: 400.0 mg/kg/injection, schedule: Q01DX009 (ip), vehicle: saline.

Regarding `CC1(C)N=C(N)N=C(N)N1c1ccc(Cl)c(Cl)c1`, the T/C was 140 % of control (dose: 5.0 mg/kg/injection, schedule: Q01DX009 (ip), vehicle: saline) and 126 % of control (dose: 18.0 mg/kg/injection, schedule: Q01DX009 (ip), vehicle: saline). In addition, the survivor count under setting [1] is 2 of 6, the survivor count under setting [2] is 0 of 6 and the survivor count under setting [3] is recorded as 0 of 6.
In the case of `C=CCOc1ccccc1OC`, the survivor count (dose: 400.0 mg/kg/injection, schedule: Q04DX003 (ip), vehicle: saline with Tween-80) is recorded as 3 of 6.
Turning to `NC(N)=Nc1ccc(C(=O)Oc2ccc(OC(=O)c3cccc(N=C(N)N)c3)cc2)cc1`, the survivor count (dose: 400.0 mg/kg/injection, schedule: Q01DX009 (ip), vehicle: water) is listed as 2 of 6.
Consider `Cc1c2cc3c(cc2cc2c4cc5c(cc4cc[n+]12)OCO5)OCO3` (tested in a mixture with another compound), for which the survivor count under setting [4] is given as 5 of 6.
On to `Oc1c(CN2CCCC2)cc(Nc2nccc(/C=C/c3ccc(Cl)cc3)n2)cc1CN1CCCC1`, for which the survivor count under setting [5] is given as 2 of 6.
In the case of `C/C(=N/N)c1ccccc1O`, the survivor count reads like this: (dose: 64.0 mg/kg/injection, schedule: Q04DX002 (ip), vehicle: saline) 0 of 3; under setting [6], 0 of 3.
Take `C=CCOP(OCC=C)OCC=C`: the survivor count (dose: 200.0 mg/kg/injection, schedule: Q04DX003 (ip), vehicle: saline) was 2 of 6.
For `CCOC(=O)/C=C/N1CC1C` (stereo not drawn), the survivor count was 6 of 6 (2×) (dose: 100.0 mg/kg/injection, schedule: Q04DX003 (ip), vehicle: Klucel (hydroxypropylcellulose) (HPC)); 0 of 6 and 1 of 6 under setting [7]; 0 of 6 (2×) under setting [8].
In the case of `COc1cccc(C2NC(=O)N3C(c4cccc(OC)c4)NC(=O)N23)c1` (stereo not drawn), the survivor count (dose: 400.0 mg/kg/injection, schedule: Q04DX003 (ip), vehicle: gum acacia) was 6 of 6.
As for `O=C(Nc1ccc(Cl)cc1C(F)(F)F)Sc1ccc(Cl)cc1`, for the setting “dose: 400.0 mg/kg/injection, schedule: Q01DX009 (ip), vehicle: gum acacia”, the survivor count is 3 of 6.
For `CN(C)Cc1ccccc1COC(=O)c1cccc(Br)c1`, for the setting “dose: 400.0 mg/kg/injection, schedule: Q04DX002 (ip), vehicle: Klucel (hydroxypropylcellulose) (HPC)”, the survivor count is recorded as 2 of 3.
For `CCS/C(Cl)=C(\Cl)SCC`, the survivor count runs as follows: (dose: 200.0 mg/kg/injection, schedule: Q01DX009 (ip), vehicle: Klucel (hydroxypropylcellulose) (HPC)) 1 of 6; (dose: 400.0 mg/kg/injection, schedule: Q01DX009 (ip), vehicle: Klucel (hydroxypropylcellulose) (HPC)) 0 of 6.
For the molecule `Cc1ccc(/C=N/NC(N)=S)nn1`, under setting [6], the survivor count is listed as 0 of 3.
For `NC(N)=NC(N)=Nc1ccc(N=C(N)N=C(N)N)cc1`, the survivor count (dose: 200.0 mg/kg/injection, schedule: Q01DX001 (ip), vehicle: other) is on record as 1 of 6 and the survivor count (dose: 400.0 mg/kg/injection, schedule: Q01DX001 (ip), vehicle: other) is given as 1 of 6.
In the case of `C=CC(C(=O)OCC)C(O)CCC` (stereo not drawn), under setting [9], the survivor count is 5 of 6.
On to `COc1cccc(C(=O)O)c1OS(=O)(=O)c1ccccc1`, for which the survivor count under setting [7] is reported as 6 of 6.
`CCCCCCC(/C=C/C=C/c1ccccc1)=N\O`: the survivor count under setting [9] is 6 of 6.
On to `COc1ccc(C2C(=O)c3ccccc3C2=O)cc1OC`, for which the survivor count (dose: 400.0 mg/kg/injection, schedule: Q01DX001 (ip), vehicle: Klucel (hydroxypropylcellulose) (HPC)) is reported as 0 of 6.
With `Nc1ncnc(N)c1NC(=O)C1CCCCC1`, the survivor count (dose: 100.0 mg/kg/injection, schedule: Q01DX001 (ip), vehicle: Klucel (hydroxypropylcellulose) (HPC)) was 3 of 6.
As to `CC(C)(C)OC(=O)NC(C(=O)O)C1=CCC=CC1` (stereo not drawn), the T/C under setting [7] is 125 % of control.
For the molecule `O=[N+]([O-])c1cc(S(=O)(=O)F)ccc1F`, the survivor count (dose: 1.25 mg/kg/injection, schedule: Q04DX003 (ip), vehicle: carboxymethylcellulose (CMC)) is listed as 6 of 6; the survivor count (dose: 2.5 mg/kg/injection, schedule: Q04DX003 (ip), vehicle: carboxymethylcellulose (CMC)) is 6 of 6; the survivor count (dose: 5.0 mg/kg/injection, schedule: Q04DX003 (ip), vehicle: carboxymethylcellulose (CMC)) is recorded as 2 of 6; the survivor count (dose: 7.7 mg/kg/injection, schedule: Q01DX009 (ip), vehicle: other) is on record as 5 of 6; the survivor count (dose: 10.0 mg/kg/injection, schedule: Q04DX003 (ip), vehicle: carboxymethylcellulose (CMC)) is listed as 2 of 6; the survivor count (dose: 11.5 mg/kg/injection, schedule: Q01DX009 (ip), vehicle: other) is listed as 0 of 6. The survivor count (dose: 20.0 mg/kg/injection, schedule: Q01DX001 (ip), vehicle: carboxymethylcellulose (CMC)) is listed as 3 of 6; the survivor count (dose: 40.0 mg/kg/injection, schedule: Q01DX001 (ip), vehicle: carboxymethylcellulose (CMC)) is on record as 1 of 6; the survivor count (dose: 75.0 mg/kg/injection, schedule: Q01DX001 (ip), vehicle: other) is 0 of 6; the survivor count (dose: 150.0 mg/kg/injection, schedule: Q01DX001 (ip), vehicle: other) is recorded as 0 of 6; the survivor count (dose: 300.0 mg/kg/injection, schedule: Q01DX001 (ip), vehicle: other) is listed as 0 of 6.
In the case of `Nc1ccccc1C(O)c1ccccc1` (stereo not drawn), the survivor count under setting [10] is reported as 2 of 6.
On to `O=[N+]([O-])c1cc(S(=O)(=O)F)ccc1S`, for which the survivor count under setting [8] is on record as 0 of 6.
Turning to `Cc1ccc(C(SCC(N)C(=O)O)(c2ccc(C)cc2)c2ccc(C)cc2)cc1` (stereo not drawn), the T/C runs as follows: (dose: 11.0 mg/kg/injection, schedule: Q01DX009 (ip), vehicle: saline) 133 % of control; (dose: 16.0 mg/kg/injection, schedule: Q01DX009 (ip), vehicle: saline) 136 % of control; under setting [4], 134 and 142 % of control; (dose: 50.0 mg/kg/injection, schedule: Q01DX009 (ip), vehicle: saline) 138 % of control; (dose: 100.0 mg/kg/injection, schedule: Q01DX009 (ip), vehicle: other) 141 % of control; under setting [11], 145 % of control. Also, the T/C (dose: 200.0 mg/kg/injection, schedule: Q01DX009 (ip), vehicle: other) is 143 % of control. Also, the survivor count reads like this: under setting [12], 6 of 6; under setting [13], 6 of 6.
Turning to `C=CCC1(CC)C(=O)NC(=O)NC1=O`, the survivor count under setting [8] was 1 of 6.
Turning to `CC(C)(CO)C(O)C(=O)NN` (stereo not drawn), the survivor count under setting [10] is listed as 4 of 4.
Turning to `COc1cc2cc[n+]3c(C)c4cc5c(cc4cc3c2cc1OC)OCO5` (tested in a mixture with another compound), the T/C (dose: 10.0 mg/kg/injection, schedule: Q01DX009 (ip), vehicle: saline) was 133 % of control. In addition, the survivor count reads like this: under setting [11], 6 of 6; under setting [12], 5 of 6.
As for `ClC(Cl)[Si](Cl)(Cl)Cl`, the survivor count under setting [1] is on record as 0 of 6, the survivor count under setting [2] was 0 of 6 and the survivor count under setting [3] is given as 0 of 6.
`ClCCn1c(CCl)nc2ccccc21`: the survivor count is, setting by setting: under setting [11], 0 of 6; under setting [12], 0 of 6; under setting [13], 0 of 6.
Consider `CCCc1ccc(O)c(O)c1`, for which the survivor count (dose: 80.0 mg/kg/injection, schedule: Q01DX009 (ip), vehicle: saline) is on record as 1 of 6; the survivor count (dose: 100.0 mg/kg/injection, schedule: Q01DX001 (ip), vehicle: saline) is on record as 2 of 6; the survivor count under setting [5] is listed as 0 of 6; the survivor count under setting [10] was 0 of 6.
Consider `COc1ccc(CCCC(C)(C)O)cc1`, for which the survivor count (dose: 200.0 mg/kg/injection, schedule: Q01DX009 (ip), vehicle: saline with Tween-80) was 3 of 3.
On to `CCOC(=O)C(C[N+](C)(CC)CC)c1ccccc1` (stereo not drawn), for which the T/C (dose: 200.0 mg/kg/injection, schedule: Q01DX001 (ip), vehicle: carboxymethylcellulose (CMC)) is 126 % of control.
